Test results: publication PMC12303078

By UniProt entry, the sequences of proteins in these tests, tags left out. Where a name states a change or a piece, a line headed by the entry shows the natural chain unless it says otherwise.
UniProt A2AWL7: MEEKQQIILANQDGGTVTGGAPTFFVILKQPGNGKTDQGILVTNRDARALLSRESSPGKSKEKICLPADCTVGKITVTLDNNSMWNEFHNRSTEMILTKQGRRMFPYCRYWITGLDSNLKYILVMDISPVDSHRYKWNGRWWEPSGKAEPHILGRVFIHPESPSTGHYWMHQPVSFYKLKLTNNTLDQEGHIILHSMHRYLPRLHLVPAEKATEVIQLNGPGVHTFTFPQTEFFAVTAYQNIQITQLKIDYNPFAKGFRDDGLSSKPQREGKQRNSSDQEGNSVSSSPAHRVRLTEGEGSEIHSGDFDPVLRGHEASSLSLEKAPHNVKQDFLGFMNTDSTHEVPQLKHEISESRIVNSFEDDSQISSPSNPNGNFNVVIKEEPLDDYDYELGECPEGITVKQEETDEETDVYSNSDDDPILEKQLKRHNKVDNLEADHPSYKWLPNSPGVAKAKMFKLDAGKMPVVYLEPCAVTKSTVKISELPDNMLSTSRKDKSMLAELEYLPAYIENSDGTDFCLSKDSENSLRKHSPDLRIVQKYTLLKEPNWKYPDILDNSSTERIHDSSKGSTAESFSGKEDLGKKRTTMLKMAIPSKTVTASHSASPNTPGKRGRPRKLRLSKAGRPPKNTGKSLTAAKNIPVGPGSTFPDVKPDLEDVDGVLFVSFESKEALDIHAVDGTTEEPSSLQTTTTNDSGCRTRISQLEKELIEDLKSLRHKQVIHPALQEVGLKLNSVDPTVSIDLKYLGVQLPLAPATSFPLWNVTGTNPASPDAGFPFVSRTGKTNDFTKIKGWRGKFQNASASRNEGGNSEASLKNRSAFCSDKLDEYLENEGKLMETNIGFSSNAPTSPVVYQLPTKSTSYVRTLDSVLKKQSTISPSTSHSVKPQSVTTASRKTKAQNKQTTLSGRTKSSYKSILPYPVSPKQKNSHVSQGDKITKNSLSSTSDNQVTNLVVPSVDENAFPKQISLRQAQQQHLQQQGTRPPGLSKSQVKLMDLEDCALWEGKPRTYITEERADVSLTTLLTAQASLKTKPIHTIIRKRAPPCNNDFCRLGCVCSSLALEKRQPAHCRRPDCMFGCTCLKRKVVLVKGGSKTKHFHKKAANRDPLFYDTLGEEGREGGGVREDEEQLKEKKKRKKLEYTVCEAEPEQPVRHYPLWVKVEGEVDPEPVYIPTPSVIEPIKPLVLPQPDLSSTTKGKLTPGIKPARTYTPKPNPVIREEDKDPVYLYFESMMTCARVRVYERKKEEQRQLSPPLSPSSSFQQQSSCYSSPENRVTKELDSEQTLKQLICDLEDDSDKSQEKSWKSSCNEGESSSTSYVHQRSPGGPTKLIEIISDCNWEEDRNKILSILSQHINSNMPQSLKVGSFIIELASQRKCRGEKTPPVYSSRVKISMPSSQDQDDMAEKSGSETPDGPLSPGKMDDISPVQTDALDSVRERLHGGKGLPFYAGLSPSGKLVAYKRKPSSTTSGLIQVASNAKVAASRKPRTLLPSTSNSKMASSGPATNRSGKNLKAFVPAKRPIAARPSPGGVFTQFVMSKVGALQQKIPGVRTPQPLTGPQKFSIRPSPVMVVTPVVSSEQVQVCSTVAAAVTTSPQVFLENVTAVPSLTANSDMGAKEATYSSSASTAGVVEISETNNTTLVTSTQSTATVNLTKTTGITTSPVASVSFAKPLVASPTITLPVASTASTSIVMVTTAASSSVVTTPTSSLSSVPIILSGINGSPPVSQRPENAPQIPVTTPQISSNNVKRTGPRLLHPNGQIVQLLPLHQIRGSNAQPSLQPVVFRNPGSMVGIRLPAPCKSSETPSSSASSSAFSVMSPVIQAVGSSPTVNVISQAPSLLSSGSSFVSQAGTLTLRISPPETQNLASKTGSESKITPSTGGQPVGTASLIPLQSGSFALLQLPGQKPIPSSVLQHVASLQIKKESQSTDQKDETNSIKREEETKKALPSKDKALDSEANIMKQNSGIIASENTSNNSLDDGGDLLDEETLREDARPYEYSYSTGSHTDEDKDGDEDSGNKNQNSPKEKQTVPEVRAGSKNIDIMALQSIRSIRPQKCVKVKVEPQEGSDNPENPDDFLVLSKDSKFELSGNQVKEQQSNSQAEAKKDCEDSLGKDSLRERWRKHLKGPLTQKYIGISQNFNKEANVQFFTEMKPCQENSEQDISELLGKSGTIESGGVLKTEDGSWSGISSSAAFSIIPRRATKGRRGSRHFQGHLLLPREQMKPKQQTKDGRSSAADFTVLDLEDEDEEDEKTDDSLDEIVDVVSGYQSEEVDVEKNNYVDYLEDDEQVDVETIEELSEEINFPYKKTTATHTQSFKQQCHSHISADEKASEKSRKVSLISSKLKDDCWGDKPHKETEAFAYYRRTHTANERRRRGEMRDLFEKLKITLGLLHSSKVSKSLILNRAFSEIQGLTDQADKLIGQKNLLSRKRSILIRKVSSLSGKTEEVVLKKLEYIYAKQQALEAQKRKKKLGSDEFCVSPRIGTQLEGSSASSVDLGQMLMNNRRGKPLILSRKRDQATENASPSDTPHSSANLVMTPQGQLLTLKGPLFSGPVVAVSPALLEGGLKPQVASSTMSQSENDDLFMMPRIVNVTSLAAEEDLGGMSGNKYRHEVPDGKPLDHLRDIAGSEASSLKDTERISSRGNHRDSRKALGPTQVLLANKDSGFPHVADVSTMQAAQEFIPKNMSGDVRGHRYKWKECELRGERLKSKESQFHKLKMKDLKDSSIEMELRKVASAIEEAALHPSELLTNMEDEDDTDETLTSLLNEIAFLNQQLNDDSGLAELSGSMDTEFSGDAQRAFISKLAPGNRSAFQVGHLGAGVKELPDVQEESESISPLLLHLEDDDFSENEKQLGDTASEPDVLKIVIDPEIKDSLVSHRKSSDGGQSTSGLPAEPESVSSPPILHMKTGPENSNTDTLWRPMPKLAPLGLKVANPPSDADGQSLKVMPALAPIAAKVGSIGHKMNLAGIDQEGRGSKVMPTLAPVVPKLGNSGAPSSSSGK

Assays:
[1] = biological target: MGAΔFAM (mouse (endogenous in ESCs)) (UniProt A2AWL7); test: co-IP; anti-MGA antibody on Dynabeads with anti-rabbit IgG, overnight 4°C; nuclear extract / lysate (10 mM Tris-HCl pH8.0, 1 mM EDTA, 140 mM NaCl, 1% NP-40) of wild-type, parental, MGAΔFAM or Zmym2-null mouse ESCs; with or without a mixture of DNase and RNase; western blot
[2] = biological target: 3×Flag-tagged carboxy-terminal domain of MGA, FAM deleted (UniProt A2AWL7); test: co-IP; HEK293FT cells co-transfected with Flag-tagged MGA C-terminal portion (wild type or mutants) and HA-tagged ATF7IP; whole-cell extracts 48 h after transfection; Dynabeads with anti-mouse IgG antibody for immunoprecipitation; western blot

| binding [1] | binding [2] | Binder |
| --- | --- | --- |
| binds |  | PCGF6 (protein, UniProt Q99NA9 1-353) MDEAETDATENKRASEAKRASAMPPPPPPPPPISPPALIPAPAAGEEGPASLGQAGAAGCSRSRPPALEPERSLGRLRGRFEDYDEELEEEEEMEEEEEEEEEMSHFSLRLESGRADSEDEEERLINLVELTPYILCSICKGYLIDATTITECLHTFCKSCIVRHFYYSNRCPKCNIVVHQTQPLYNIRLDRQLQDIVYKLVINLEEREKKQMHDFYKERGLEVPKPAAPQPVPSSKGKTKKVLESVFRIPPELDMSLLLEFIGANEDTGHFKPLEKKFVRVSGEATIGHVEKFLRRKMGLDPACQVDIICGDHLLERYQTLREIRRAIGDTAMQDGLLVLHYGLVVSPLKIT |
| binds |  | ATF7IP (protein, UniProt Q7TT18 1-1306) MDSVEEPQKKVFKARKTMRASDRQQLDAVHRVKGELLRADGKLLNGSHENGDLDPTSPLENTDCIQDREEVNGIDGICFQSEESTTEWKETPCMPNVAVKNKQEDLNSEALSPSITCDLSSRVTTEPGSGSPASDNPGCGTPVSDNPASDNPASDNPASDNPDSGDLAAGELATTVQATGDSACEEPPSSDPSSSDPTSSEPSSSEPTCSEPISGDPVSEEAASHDLVSGDSTCSEPVSGEPVSHEAASSEPATSEPASDEPVARVVAACELAPGESALDDCAPSGDSQSDEPPSSEDSLPRSVCSGLASGELTPGELSVEPATDTVKPSSSAVCEAGPDPDKTEPSSNNSDDCPGKSEDDEHLDQIQSKDSCDEGNKVNSNVVEKEEPLETHSAIICSDLPPENTTKIAEDPIAEPALEEEAISSSMEVDQSEKDEHKSPAEPVAAVSEDPAEEDKEDTVVDNTDSMETDEIIPILEKLAPTEDELSCFSKASLLPVETSQDLEDKMEGSFGSPSKQESSENLPKEAFLVLSDEEDLSCGKDESEAVAQSKMSTPEGEKSEKDGKAEEEERVPAEEQPPVRNEFSRRKRSKSEDMDSVESKRRRYMDEEYEAEFQVKITAKGDINQKLQKVIQWLLQEKLCALQCAVFDKTLAELKTRVEKIECNKRHKAVLTELQAKIARLTKRFGAAKDDLKKRQESPPNPPISPGKPANDTNSNNNMTYRNAGTVRQLLESKRNVSEGPPPSFQTPVNTVSSASHATSTAVVSSQPKLQTSATSGSLPAAPLLPAPSTATVVATTQVPSGTPQPTISLQPLPVILHVPVAVTSQPQLLQSHPGTLVTNQPSGNVEFISVQSQPTVSGLTKNPVSLPPLPNPTKPNIPSVPSPSSIQRNSSTTAAPLGTTLAVQAVPTAHSIVQATRTSLPTVGPSGLYSSSSSRGPIQMKIPISTFSPPSSAEQNSSATPRIVTENQTNKTVDSSINKKAADSTSQSGKASSSDSSGVIDLTMDDEESGTTQDPKKISPPSSSTVSTSQPMSRPLQPILPAPPLQPSGVPTSGPSQATIHVLPTAPTTVNVTHRPVTQVTTRLPVPRAPANHQVVYTTLPAPTTQAPLRGTVMQAPAVRQVNPQNSVTVRVPQTTTYVVNNGLTLGSAGPQLTVHHRPPQVHNEPPRPLHPAPLPEAPQPQRLPPEAASTSLPQKPHLKLARVQSQNGIVLSWSVLEVDRSCATVDSYHLYAYHEEPSATVPSQWKKIGEVKALPLPMACTLTQFVSGSKYYFAVRAKDIYGRFGPFCDPQSTDVISSSQNS |
|  | no binding | HA-tagged ATF7IP (protein, UniProt Q7TT18 1-1306) MDSVEEPQKKVFKARKTMRASDRQQLDAVHRVKGELLRADGKLLNGSHENGDLDPTSPLENTDCIQDREEVNGIDGICFQSEESTTEWKETPCMPNVAVKNKQEDLNSEALSPSITCDLSSRVTTEPGSGSPASDNPGCGTPVSDNPASDNPASDNPASDNPDSGDLAAGELATTVQATGDSACEEPPSSDPSSSDPTSSEPSSSEPTCSEPISGDPVSEEAASHDLVSGDSTCSEPVSGEPVSHEAASSEPATSEPASDEPVARVVAACELAPGESALDDCAPSGDSQSDEPPSSEDSLPRSVCSGLASGELTPGELSVEPATDTVKPSSSAVCEAGPDPDKTEPSSNNSDDCPGKSEDDEHLDQIQSKDSCDEGNKVNSNVVEKEEPLETHSAIICSDLPPENTTKIAEDPIAEPALEEEAISSSMEVDQSEKDEHKSPAEPVAAVSEDPAEEDKEDTVVDNTDSMETDEIIPILEKLAPTEDELSCFSKASLLPVETSQDLEDKMEGSFGSPSKQESSENLPKEAFLVLSDEEDLSCGKDESEAVAQSKMSTPEGEKSEKDGKAEEEERVPAEEQPPVRNEFSRRKRSKSEDMDSVESKRRRYMDEEYEAEFQVKITAKGDINQKLQKVIQWLLQEKLCALQCAVFDKTLAELKTRVEKIECNKRHKAVLTELQAKIARLTKRFGAAKDDLKKRQESPPNPPISPGKPANDTNSNNNMTYRNAGTVRQLLESKRNVSEGPPPSFQTPVNTVSSASHATSTAVVSSQPKLQTSATSGSLPAAPLLPAPSTATVVATTQVPSGTPQPTISLQPLPVILHVPVAVTSQPQLLQSHPGTLVTNQPSGNVEFISVQSQPTVSGLTKNPVSLPPLPNPTKPNIPSVPSPSSIQRNSSTTAAPLGTTLAVQAVPTAHSIVQATRTSLPTVGPSGLYSSSSSRGPIQMKIPISTFSPPSSAEQNSSATPRIVTENQTNKTVDSSINKKAADSTSQSGKASSSDSSGVIDLTMDDEESGTTQDPKKISPPSSSTVSTSQPMSRPLQPILPAPPLQPSGVPTSGPSQATIHVLPTAPTTVNVTHRPVTQVTTRLPVPRAPANHQVVYTTLPAPTTQAPLRGTVMQAPAVRQVNPQNSVTVRVPQTTTYVVNNGLTLGSAGPQLTVHHRPPQVHNEPPRPLHPAPLPEAPQPQRLPPEAASTSLPQKPHLKLARVQSQNGIVLSWSVLEVDRSCATVDSYHLYAYHEEPSATVPSQWKKIGEVKALPLPMACTLTQFVSGSKYYFAVRAKDIYGRFGPFCDPQSTDVISSSQNS |

No constants are given. Whether binding was seen depends on the method and setting. Binding seen in cells or lysates may run through a third protein. For part of these data: Binding can be weak; no strength is given. For part of these data: Where a sequence is shown, tags or fusion partners need not be part of it.
